At least one compound was matched to its structure with a doubt left.
Key:
[1] = test system: K562 cell lysate; test: Single temperature point TPP target identification, 25 drugs pooled into 14 mixture systems (Example 2); format: binding; conditions: 25 compounds in 14 mixture systems (each in 4), remaining steps as Example 1 (40 μM, K562 cell lysate, 52° C., LASSO β threshold 0.1); — = no target identified
Method: (§1) In step S04: DMSO as a solvent was added to each mixture system in step S03 to enable a concentration of each drug to reach 40 μM, and then the single temperature point TPP method is applied to measure the interaction between each mixture system and the protein. The specific experimental steps are that: equal amounts of K562 cell lysate were mixed with a drug mixture system, incubated at room temperature for 10 minutes, then heated at 52° C. for 3 minutes, and then quickly cooled to 4° C. on a PCR machine. The samples were centrifuged at 21,000 rcf for 20 minutes at 4° C., and the supernatant was collected. According to the mass spectrometry-based proteomics quantification method, each sample was enzymatically digested and TMT labeled, and then the LC-MS mass spectrometry was used for measurement to obtain the content of protein. […] Therefore, if a protein can interact with the mixed system, then the content of protein measured by mass spectrometry will be higher, and vice versa.
In step S05: Nine measured values Yi obtained from the interaction between the nine mixture systems and the target protein are marked as response vectors Y; the response vectors Y were normalized so that the numerical values of the response vectors are between 0 and 1. The response vector Y and the permutation matrix S meet a relational expression of:
Where, λ is a penalty term, which is used to adjust a compression degree of β, in this embodiment, the value of λ is 0.1 and the threshold is 0.1.
It is assumed that the above twenty-five compounds to be tested are mixed into fourteen mixture systems: mixture system 1, mixture system 2, mixture system 3, . . . and mixture system 14. Each compound to be tested was included in four different mixture systems. That is, m=14, n=25, a=4. […] In FIG. 5, the black grid represents the numerical value of 1, and the white grid represents the numerical value of 0. […] The twenty-five compounds to be tested were mixed according to the finally obtained 14×25 optimized permutation matrix S shown in FIG. 5, to obtain fourteen mixture systems.

[2] = test system: K562 cell lysate; test: Single temperature point TPP target identification, 15 drugs pooled into 9 mixture systems (Example 1); format: binding; conditions: 15 compounds in 9 mixture systems (each in 3), each drug 40 μM, heated at 52° C. for 3 minutes, LASSO β threshold 0.1, — = no target identified
Source text: In step S01: Fifteen drugs to be tested (i.e., the compounds to be tested) were given: Palbociclib, Panobinostat, Raltitrexed, Methotrexate, Vemurafenib, Fimepinostat, SCIO-469, SL-327, 5-Fluorouracil, Olaparib, Belumosudil, OTS964, Parthenolide, CCT137690, […], which are sequentially numbered as compound to be tested 1, compound to be tested 2, compound to be tested 3, . . . and compound to be tested 15. It is assumed here that the above fifteen compounds to be tested are mixed into nine mixture systems: mixture system 1, mixture system 2, mixture system 3, . . . and mixture system 9, and each compound to be tested was included in three different mixture systems, that is, m=9, n=15, a=3. The nine mixture systems are mapped into a 9x15 initial permutation matrix A of the compounds to be tested, and the initial permutation matrix A is randomly initialized so that the numerical values in the matrix A are random floating-point numbers between 0 and 1.
The initial permutation matrix A of the compounds to be tested was iteratively optimized through a genetic algorithm to minimize the value of the objective function L; the permutation matrix A is subjected to the binary conversion in step S02 when the value of the objective function L is the minimum to obtain the optimized permutation matrix S (as shown in FIG. 3), the optimized permutation matrix S is the final permutation matrix. […] In FIGS. 2 and 3, the black grid represents the numerical value 1, and the white grid represents the numerical value 0. During the iteration process, the value of the objective function L decreases to a constant value as the number of iterations increases, as shown in FIG. 4. The fifteen compounds to be tested were mixed according to the finally-obtained 9×15 optimized permutation matrix shown in FIG. 3, and nine mixture systems were obtained.
as §1, with “The specific experimental steps are that: equal amounts of K562 cell lysate were mixed with a drug mixture system, incubated at room temperature for 10 minutes, then heated at 52° C. for 3 minutes, and then quickly cooled to 4° C. on a PCR machine. The samples were centrifuged at 21,000 rcf for 20 minutes at 4° C., and the supernatant was collected.” left out
In step S05: Nine measured values Yi obtained from the interaction between the nine mixture systems and the target protein are marked as response vectors Y; the response vectors Y were normalized so that the numerical values of the response vectors are between 0 and 1. […]

Row | Compound | Successfully Identified Target(s) [1] | Successfully Identified Target(s) [2]
1 | CCN1CCN(Cc2ccc(Nc3ncc(F)c(-c4cc(F)c5nc(C)n(C(C)C)c5c4)n3)nc2)CC1 [Abemaciclib] | CDK4 | 
2 | CC(=O)c1c(C)c2cnc(Nc3ccc(N4CCNCC4)cn3)nc2n(C2CCCC2)c1=O [Palbociclib] | CDK4, CDK6 | CDK4, CDK6
3 | Cc1[nH]c2ccccc2c1CCNCc1ccc(/C=C/C(=O)NO)cc1 [Panobinostat] | HDAC1, HDAC2 | HDAC1, HDAC2, HDAC10
4 | N#C/C(=C(/N)Sc1ccc(N)cc1)c1ccccc1C(F)(F)F [SL-327] | MAP2K1, MAP2K2 | MAP2K1, MAP2K2
5 | CCCS(=O)(=O)Nc1ccc(F)c(C(=O)c2c[nH]c3ncc(-c4ccc(Cl)cc4)cc23)c1F [Vemurafenib] | BRAF | BRAF

— patent US20250095772A1, “METHOD FOR IMPROVING THROUGHPUT OF COMPOUND-PROTEIN INTERACTION EXPERIMENTS” (SOUTHERN UNIVERSITY OF SCIENCE AND TECHNOLOGY, priority 2022, published 2025)
